Source: patent publication US20150202243A1, “HDC Activation Inhibitor, HDC Activation Inhibition Composition, Antipruritic Agent, and Antipruritic Agent Composition” (HOYU CO., LTD., priority 2012, published 2015)
Where a name gives a salt, the structure may show the parent alone. Some of these results come from one statement about several compounds together.

System: SL-induced scratching behavior in mice
Assay: Inhibitory effect against sodium laurate-induced scratching behavior in mice
Type: in vivo, male ICR mice
Details: 10% SL; 2.5% by mass test substance in 50% ethanol, topical
Description: Test substances were evaluated for their HDC activation inhibitor (antipruritic agent) effect on the basis of their inhibitory effect on mice's scratching behavior induced by irritation with SL. The test substances used were apigenin, luteolin, sterubin, prunetin, tannic acid, chlorogenic acid, resveratrol, diphenhydramine hydrochloride, and d-chlorpheniramine maleate. Among these substances, diphenhydramine hydrochloride and d-chlorpheniramine maleate were conventionally known as antihistamic agents and served as comparative test substances.
Procedure: the test animals used were male ICR mice aged 7-8 weeks. […]
The mice were divided into test substance group (n=3 or 4) and solvent control group (n=3). […] The scratching behavior in the mice was evaluated by the following procedure.
More specifically, the mice treated as above were housed in acrylic cages (26×18×30 cm) divided into 4 sections, one mouse per section, and after the mice were acclimated for at least 30 minutes in an unattended environment, the behavior of the mice was recorded on video for 60 minutes. The recorded video was reviewed to check for the scratching behavior of the mice and visually count the number of a series of scratching behaviors which consist of an animal scratching the rostral back with a posterior leg and putting down the leg. […]

Structure (SMILES): CN(C)CCOC(c1ccccc1)c1ccccc1 [Diphenhydramine hydrochloride, diphenhydramine hydrochloride, reference compound]
- number of scratches for 60 minutes (approximate, text summary of FIG. 4): 80 to 90 times
